These are yes or no findings as the source states them, for the method shown. In cells and extracts the contact can be indirect. Some results given as binding are weak or reduced against the parent protein; the word gives no strength. Where a sequence is shown, tags or fusion partners need not be part of it.
B1: MYC-AKTIP (protein, UniProt Q9H8T0 1-292)
chain: MNPFWSMSTSSVRKRSEGEEKTLTGDVKTSPPRTAPKKQLPSIPKNALPITKPTSPAPAAQSTNGTHASYGPFYLEYSLLAEFTLVVKQKLPGVYVQPSYRSALMWFGVIFIRHGLYQDGVFKFTVYIPDNYPDGDCPRLVFDIPVFHPLVDPTSGELDVKRAFAKWRRNHNHIWQVLMYARRVFYKIDTASPLNPEAAVLYEKDIQLFKSKVVDSVKVCTARLFDQPKIEDPYAISFSPWNPSVHDEAREKMLTQKKPEEQHNKSVHVAGLSWVKPGSVQPFSKEEKTVAT
B2: HA-AKTIP (protein, UniProt Q9H8T0 1-292)
chain: MNPFWSMSTSSVRKRSEGEEKTLTGDVKTSPPRTAPKKQLPSIPKNALPITKPTSPAPAAQSTNGTHASYGPFYLEYSLLAEFTLVVKQKLPGVYVQPSYRSALMWFGVIFIRHGLYQDGVFKFTVYIPDNYPDGDCPRLVFDIPVFHPLVDPTSGELDVKRAFAKWRRNHNHIWQVLMYARRVFYKIDTASPLNPEAAVLYEKDIQLFKSKVVDSVKVCTARLFDQPKIEDPYAISFSPWNPSVHDEAREKMLTQKKPEEQHNKSVHVAGLSWVKPGSVQPFSKEEKTVAT

By UniProt entry, the sequences of proteins in these tests, tags left out.
UniProt Q9UK41: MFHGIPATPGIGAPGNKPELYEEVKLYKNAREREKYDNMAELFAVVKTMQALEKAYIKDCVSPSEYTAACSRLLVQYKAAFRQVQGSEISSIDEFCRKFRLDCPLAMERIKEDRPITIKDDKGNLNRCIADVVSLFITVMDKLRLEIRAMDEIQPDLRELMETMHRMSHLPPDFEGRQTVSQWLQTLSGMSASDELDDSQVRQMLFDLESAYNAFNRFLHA

Biological target: GST-VPS28 (human) (UniProt Q9UK41)
Test: pull-down

Binder | binding
B1 | binds
B2 | binds

From article doi:10.1101/2020.01.19.911891
